Measured values: PubChem BioAssay AID1347076 (National Center for Advancing Translational Sciences (NCATS), 2019)
Out of some 400,000 compounds screened, about 13,000 (3.2%) were called active. The inconclusive results got no clear call from the source; some entries with a clear call stand among them for comparison. The call rests on the fitted dose curve; in most records, active means well fitted cell-killing curve with a large enough effect; inconclusive means small, poorly fitted or top-dose-only effect, or effect the other way; inactive means flat fitted curve, though single readings scatter. Where the call is inconclusive, the potency comes from a doubtful curve fit.

Test: qHTS assay for MDR1-selective chemotherapeutics: Primary screen using the drug-selected MDR subline cells KB-V1; further: nearly all actives have a fitted effect of over 60% in size
Settings: KB-V1 MDR cells viability, CellTiter-Glo, 72 h; activity change, negative = cytotoxicity: at 46.1 µM (top of the series)
Summary of the method: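 Cytotoxicity toward P-gp-expressing KB-V1 cells was determined as loss of CellTiter-Glo luminescence after 72 h at 37 degrees C. Compounds were tested in quantitative HTS format across a concentration range, with curves fitted to normalized data.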
On the % scale 0 is the no-effect control and ±100 the full control effect; potency means the concentration at half of the fitted maximal effect.

Row | SMILES | Potency | activity change, negative = cytotoxicity
1 | CN1CCCC(CC2c3ccccc3Sc3ccccc32)C1 (stereo unspecified) | active: 18.4 µM | 
2 | O=c1[nH]cc(CCCc2ccccc2)c(=O)[nH]1 |  | inactive: -3.87%
3 | COc1cccc(-n2nc3c(=O)n(Cc4ccccc4Cl)nc(C)c3c2C)c1 | inconclusive: 3.66 µM [cytotoxic, full curve] | 
4 | CN(C)/C=N/C(=S)Nc1ccc(F)cc1 |  | inactive: 15.4%
5 | COc1ccc(C(C)=O)c(OC(=O)c2ccc(OC)c(OC)c2)c1 | inconclusive: 20.6 µM [cytotoxic, single point] | 
6 | CCOC(=O)C1CCCN(C(=O)COc2ccc(C(C)(C)C)cc2)CC1 (stereo unspecified) |  | inactive: -6.57%
7 | COCCN1C(=O)c2ccc(C(=O)Nc3cccnc3)cc2C1=O | inconclusive: 29.1 µM [rising, single point] | 
8 | O=C(CNC(=O)c1ccco1)NCC(c1ccco1)N1CCCCC1 (stereo unspecified) |  | inactive: 0%
9 | CCCn1nnnc1NC(=O)c1ccc2ccccc2c1 | inconclusive: 29.1 µM [cytotoxic, single point] | 
10 | O=C(CSc1nc2ccccc2c(=O)n1-c1ccc(F)cc1F)c1c[nH]c2ccccc12 |  | inactive: 0.505%
11 | Cc1ccc(CN2CC(C(=O)NCCCSc3ccccc3)CC2=O)cc1 (stereo unspecified) | inconclusive: 29.1 µM [cytotoxic, single point] | 
12 | CCOC(=O)C1CCCN(C(=O)Cn2nc(C)n3nc(-c4ccccc4)cc3c2=O)C1 (stereo unspecified) | inconclusive: 8.2 µM [cytotoxic, partial curve] | 
13 | Cc1ccc(COC(=O)c2ccc(-c3nnn(Cc4ccc(C)cc4)n3)cc2)cc1 |  | inactive: -0.658%
14 | CSCCC(NC(=O)C1CCC(C)CC1)C(=O)N1CCN(c2ccccn2)CC1 (stereo unspecified) | inconclusive: 1.64 µM [cytotoxic, partial curve, poor fit] | 
15 | COc1cc(CNC(=O)c2ccc3oc(C(C)C)nc3c2)cc(OC)c1 |  | inactive: -0.263%
16 | CN1CCN(C(=S)NC(CC(=O)c2ccccc2)c2ccccc2)CC1 (stereo unspecified) | inconclusive: 16.4 µM [cytotoxic, partial curve] | 
17 | c1ccc2c(c1)oc1c(N3CCOCC3)ncnc12 |  | inactive: 0%
18 | Cc1ccc(S(=O)(=O)N2CCCC2)cc1S(=O)(=O)N1CCCC1 | inconclusive: 29.1 µM [cytotoxic, single point] | 
19 | COCCn1c(N)c(N(Cc2ccccc2)C(=O)C2CCCCC2)c(=O)[nH]c1=O | inconclusive: 29.1 µM [rising, single point] | 
20 | CC(=O)C(Sc1nc(-c2ccccc2Cl)nc2c1c(=O)n(C)c(=O)n2C)C(=O)N(C)C (stereo unspecified) |  | inactive: -2.5%
21 | CN1C(=O)NC(c2ccccc2[N+](=O)[O-])C2=C1CCCC2=O (stereo unspecified) | inconclusive: 29.1 µM [rising, single point] | 
22 | Cc1c(C#N)c2ccccc2n1CC(=O)NCCc1c[nH]c2ccccc12 | inconclusive: 5.8 µM [cytotoxic, partial curve, poor fit] | 
23 | O=C(c1cc(N2C(=O)C3C4CCC(C4)C3C2=O)ccc1Cl)N1CCN(c2ccc(F)cc2)CC1 (stereo unspecified) | active: 2.59 µM | 
24 | CCC(=O)N(C1=C(NC(C)C)C(=O)c2ccccc2C1=O)C(C)C | inconclusive: 1.3 µM [cytotoxic, full curve, poor fit] | 

Row | SMILES | Potency | activity change, negative = cytotoxicity
25 | Cc1cc(N)cc(C)c1-c1c(Br)cc(N)cc1Br | active: 16.4 µM | 
26 | S=C(Nc1ccccc1Cl)Nc1ccc(Cl)cc1Cl |  | inactive: 10.5%
27 | CN1CCC(=C2c3ccccc3CC(=O)c3sccc32)CC1 | inconclusive: 16.4 µM [cytotoxic, single point] | 
28 | Cc1ccc(-c2c3c(=O)n(C)c(=O)n(C)c3cn2Cc2ccccn2)cc1 |  | inactive: 4.3%
29 | CCN(CC(=O)NCc1ccc(Cl)cc1)C(=O)CCOc1ccc(C)cc1 | inconclusive: 8.2 µM [cytotoxic, partial curve] | 
30 | CC1CN(C(=O)COC(=O)c2ccc3ncsc3c2)CC(C)O1 (stereo unspecified) |  | inactive: -3.8%
31 | CCCN1CCN(C(=S)Nc2ccccc2C(F)(F)F)CC1 | active: 3.26 µM | 
32 | CCOc1ccc2[nH]c(=O)c(CN(Cc3cccs3)Cc3nnnn3C(C)(C)CC)cc2c1 | active: 18.4 µM | 
33 | Cc1cc(C(=O)OCC(=O)Nc2ccc(F)c(F)c2)c(C)o1 | inconclusive: 25.9 µM [cytotoxic, single point] | 
34 | Cc1ccc(C(C)C)c(OCCNC(=O)c2ccccc2O)c1 | inconclusive: 10.3 µM [cytotoxic, partial curve, poor fit] | 
35 | Cc1ccnc(NC(=O)CCC(=O)N(CC(=O)NCCc2ccccc2)Cc2cccs2)c1 | inconclusive: 29.1 µM [cytotoxic, partial curve, poor fit] | 
36 | O=C(Cc1ccccc1)Nc1nc(-c2ccc(F)c(F)c2)cs1 |  | inactive: -29%
37 | CCOc1ccc(OCCC(=O)N(CCC(C)C)c2c(N)n(Cc3ccccc3)c(=O)[nH]c2=O)cc1 |  | inactive: -2.43%
38 | CC(NC(=O)CNC(=S)N(Cc1ccccc1)Cc1cccnc1)c1ccccc1 (stereo unspecified) | inconclusive: 4.61 µM [cytotoxic, partial curve] | 
39 | CC1(C(=O)Nc2ccc(Cl)c(C(F)(F)F)c2)Cc2c(-c3ccccc3)ccnc2O1 (stereo unspecified) |  | inactive: 2.79%
40 | COCCOc1cc(NC(=O)c2sccc2Oc2ccc([N+](=O)[O-])cc2F)c(Cl)cc1Cl | inconclusive: 29.1 µM [cytotoxic, single point] | 
41 | CCc1ccccc1NC(=O)CN1CCN(CC(=O)Nc2ccc(-c3ccccc3)cc2)CC1 | inconclusive: 16.4 µM [cytotoxic, partial curve] | 
42 | COC(=O)/C=C1\OCc2cc(OCc3ccccc3)ccc21 |  | inactive: -19.1%
43 | C=CCc1ccc(OCCCCN2CC(C)OC(C)C2)c(OC)c1 (stereo unspecified) | inconclusive: 23.1 µM [cytotoxic, single point] | 
44 | COc1cc(OC)c(NC(=O)c2sc3ncn(CC(=O)N4CCN(c5ccccn5)CC4)c(=O)c3c2C)cc1Cl | inconclusive: 1.16 µM [rising, full curve, poor fit] | 
45 | CC(=O)N(Cc1ccc(Br)cc1)c1cccc(C)c1C |  | inactive: -0.176%
46 | Cc1cccc(-c2sc(Nc3ccccc3)n[n+]2-c2ccc(F)cc2)c1 |  | inactive: 26.4%
47 | C=CCNC(=O)c1onc(CSc2ccc(F)c(F)c2)c1C(=O)NCC=C |  | inactive: 24.2%
48 | O=C1CN(c2nc3ccccc3n3cnnc23)CC(=O)N1CCc1ccccc1 | inconclusive: 29.1 µM [rising, single point] | 

Row | SMILES | Potency | activity change, negative = cytotoxicity
49 | Oc1ccc(CCNc2ncnc3ccc(Cl)cc23)cc1 | inconclusive: 4.11 µM [cytotoxic, full curve] | 
50 | CCCCN(c1ccccc1)S(=O)(=O)c1cc2c3c(c1)C(C)C(=O)N3CCC2 (stereo unspecified) | inconclusive: 14.6 µM [cytotoxic, single point] | 
51 | O=C(CCS(=O)(=O)c1ccc(Cl)cc1)NC1CCCC1 | inconclusive: 29.1 µM [rising, single point] | 
52 | Nc1nc2ccccc2n1C(=O)CCc1ccccc1 |  | inactive: -15.2%
53 | CC(C)(C)c1ccc(OC(=O)Nc2ccc(O)c(C(=O)O)c2)cc1 |  | inactive: -2.52%
54 | NC1=NC[C@@H](Cc2ccc(O)cc2)N1CCc1cccc(F)c1 | inconclusive: 13 µM [rising, partial curve] | 
55 | CCN(c1ccc(OC)cc1)S(=O)(=O)c1cc(-c2cc(C)no2)ccc1C(C)C | inconclusive: 0.411 µM [cytotoxic, full curve, poor fit] | 
56 | CC(NC(C)c1ccccc1Cl)C(=O)Nc1cccc(S(=O)(=O)N2CCCCC2)c1 (stereo unspecified) |  | inconclusive: -19%
57 | CC1(C(=O)NS(=O)(=O)C2CC2)CCN(C(=O)c2cc3ccccc3s2)C1 (stereo unspecified) | inconclusive: 20.6 µM [rising, partial curve, poor fit] | 
58 | CC(C)(CN1CCN(Cc2ccccc2)CC1)NS(=O)(=O)c1ccccc1 | inconclusive: 6.51 µM [cytotoxic, partial curve, poor fit] | 
59 | COc1ccc(/C=C2/SC(=S)N(CCCC(=O)N3CCN(C)CC3)C2=O)cc1 | inconclusive: 29.1 µM [cytotoxic, partial curve, poor fit] | 
60 | COc1cccc2cc(C(N)=O)oc12 | inconclusive: 29.1 µM [rising, single point] | 
61 | CCc1cccc(C)c1NC(=O)CC(C)(C)CC(=O)O | inconclusive: 9.2 µM [rising, partial curve, poor fit] | 
62 | O=C(CSc1nnnn1-c1ccc(O)cc1)Nc1ccc(N2CCOCC2)c(Cl)c1 | inconclusive: 35.5 µM [cytotoxic, single point] | 
63 | COCCn1c(=S)[nH]c2cc(C(=O)N3CCc4ccccc43)ccc2c1=O | inconclusive: 7.31 µM [cytotoxic, partial curve] | 
64 | COc1ccc(N(CC(=O)NCCC2=CCCCC2)S(=O)(=O)c2ccc(C)cc2)cc1OC | inconclusive: 5.17 µM [cytotoxic, partial curve] | 
65 | COc1c(OC(C)=O)ccc(/C=C/c2ccc3cccc(OCc4ccccc4)c3n2)c1[N+](=O)[O-] | inconclusive: 32.6 µM [cytotoxic, partial curve, poor fit] | 
66 | CCOC(=O)c1[nH]c2ccccc2c1NC(=O)c1ccc(S(=O)(=O)N2CCCC2)cc1 | inconclusive: 20.6 µM [cytotoxic, single point] | 
67 | CCOC(=O)c1c(C)[nH]c(C(=O)OCC(=O)NC(C)C)c1C | active: 23.1 µM | 
68 | Cc1c(Cl)cccc1NC(=O)CSc1nncn1-c1cccnc1 | inconclusive: 20.6 µM [cytotoxic, partial curve, poor fit] | 
69 | O=C1CC(c2cccc(O)c2)Oc2ccccc21 (stereo unspecified) | inconclusive: 29.1 µM [cytotoxic, partial curve, poor fit] | 
70 | O=C(c1ccc(Cl)c(S(=O)(=O)N2CCCC2)c1)N1CCN(c2ccc(F)cc2)CC1 | active: 5.8 µM | 
71 | Cc1ccc(-c2noc(CNS(=O)(=O)c3ccccc3)n2)cc1 | inconclusive: 23.1 µM [cytotoxic, single point] | 

Copied from the list:
`COc1cc(CNC(=O)c2ccc3oc(C(C)C)nc3c2)cc(OC)c1` | activity change, negative = cytotoxicity: inactive: -0.263%
`CCCn1nnnc1NC(=O)c1ccc2ccccc2c1` | Potency: inconclusive: 29.1 µM [cytotoxic, single point]
`Cc1ccc(COC(=O)c2ccc(-c3nnn(Cc4ccc(C)cc4)n3)cc2)cc1` | activity change, negative = cytotoxicity: inactive: -0.658%
`CN(C)/C=N/C(=S)Nc1ccc(F)cc1` | activity change, negative = cytotoxicity: inactive: 15.4%
